# According to the supplement of paper PMC8728848:
# The other results are listed elsewhere or left out.
# B1: FimA-N2 (Actinomyces oris) (protein)
# chain: MHHHHHHSSGVDLGTENLYFQSNAWIYDVNVYPKNEAIDVDKTIQAQKLNGYGVGSLIKFPVESTAPTLDAKSFYKYFQLKDTLDERLSEVTATDVSLEGTPLQPTDYKVETKQQTVTVTFTAEGLKKIKAAPGKKVSAVFQGKVTKAGNGAITNRAQVISDTLYAEQPPTPETPPTDPENPPTSDEVISRWGDLSIKKVDTHQQGQTKA
# Key:
# Experiment in all cases: glycan array binding signal (z-score within array); higher = stronger binding
# Settings in all cases: glycan notation: IUPAC condensed, linker removed
# [1] = biological target: GalNAc(b1-4)GlcNAc(b1-2)Man
# How it was run: (§1)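 Negative Z-scores can be read as non-binding. The Z-score is calculated within each array and then averaged across arrays of one protein sequence at different concentrations or buffers and across linkers. Arrays, 3228 in all, were curated from the Consortium for Functional Glycomics database and kept only where the protein sequence was available.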
# [2] = biological target: GalNAc(b1-4)GlcNAc(b1-2)Man(a1-3)[GalNAc(b1-4)GlcNAc(b1-2)Man(a1-6)]Man(b1-4)GlcNAc(b1-4)GlcNAc
# How it was run: as §1
# [3] = biological target: GalNAc(b1-4)GlcNAc(b1-3)GalNAc(b1-4)GlcNAc
# How it was run: as §1
# [4] = biological target: GalNAc(b1-4)GlcNAc6S
# How it was run: as §1
# [5] = biological target: GalNAc(b1-6)GalNAc
# How it was run: as §1
# [6] = biological target: GalNAc3S(b1-4)GlcNAc
# How it was run: as §1
# [7] = biological target: GalNAc3S(b1-4)GlcNAc3S
# How it was run: as §1
# [8] = biological target: GalNAc3S(b1-4)[Fuc(a1-3)]GlcNAc
# How it was run: as §1
# [9] = biological target: GalNAc4S6S(b1-4)GlcNAc
# How it was run: as §1
# [10] = biological target: GalNAc6S(b1-4)GlcNAc
# How it was run: as §1
# [11] = biological target: Glc(a1-4)Glc
# How it was run: as §1
# [12] = biological target: Glc(a1-4)Glc(a1-4)Glc(a1-4)Glc
# How it was run: as §1
# [13] = biological target: Glc(a1-6)Glc(a1-6)Glc
# How it was run: as §1
# [14] = biological target: Glc(a1-6)Glc(a1-6)Glc(a1-6)Glc
# How it was run: as §1
# [15] = biological target: Glc(b1-4)Glc
# How it was run: as §1
# [16] = biological target: Glc(b1-6)Glc
# How it was run: as §1
# [17] = biological target: GlcA(b1-3)Gal
# How it was run: as §1
# [18] = biological target: GlcA(b1-3)GlcNAc
# How it was run: as §1
# [19] = biological target: GlcA(b1-6)Gal
# How it was run: as §1
# [20] = biological target: GlcA3S(b1-3)Gal(b1-4)GlcNAc(b1-2)Man
# How it was run: as §1
# [21] = biological target: GlcA3S(b1-3)Gal(b1-4)GlcNAc(b1-3)Gal(b1-4)Glc
# How it was run: as §1
# [22] = biological target: GlcNAc(a1-3)Gal(b1-4)GlcNAc
# How it was run: as §1
# [23] = biological target: GlcNAc(a1-4)Gal(b1-3)GlcNAc
# How it was run: as §1
# [24] = biological target: GlcNAc(a1-4)Gal(b1-4)GalNAc
# How it was run: as §1
# [25] = biological target: GlcNAc(a1-4)Gal(b1-4)GlcNAc
# How it was run: as §1
# [26] = biological target: GlcNAc(a1-4)Gal(b1-4)GlcNAc(b1-3)Gal(b1-4)Glc
# How it was run: as §1
# [27] = biological target: GlcNAc(a1-4)Gal(b1-4)GlcNAc(b1-3)Gal(b1-4)GlcNAc
# How it was run: as §1
# [28] = biological target: GlcNAc(a1-4)Gal(b1-4)GlcNAc(b1-3)Gal(b1-4)GlcNAc(b1-3)Gal(b1-4)GlcNAc
# How it was run: as §1
# [29] = biological target: GlcNAc(a1-4)Gal(b1-4)GlcNAc(b1-3)Gal(b1-4)[Fuc(a1-3)]GlcNAc(b1-3)Gal(b1-4)[Fuc(a1-3)]GlcNAc
# How it was run: as §1
# [30] = biological target: GlcNAc(a1-6)Gal(b1-4)GlcNAc
# How it was run: as §1
# [31] = biological target: GlcNAc(b1-2)Gal(b1-3)GalNAc
# How it was run: as §1
# [32] = biological target: GlcNAc(b1-2)Man(a1-3)[GlcNAc(b1-2)Man(a1-6)]Man(b1-4)GlcNAc(b1-4)GlcNAc
# How it was run: as §1
# [33] = biological target: GlcNAc(b1-2)Man(a1-3)[GlcNAc(b1-2)Man(a1-6)]Man(b1-4)GlcNAc(b1-4)[Fuc(a1-6)]GlcNAc
# How it was run: as §1
# [34] = biological target: GlcNAc(b1-2)Man(a1-3)[GlcNAc(b1-4)][GlcNAc(b1-2)Man(a1-6)]Man(b1-4)GlcNAc(b1-4)GlcNAc
# How it was run: as §1
# [35] = biological target: GlcNAc(b1-2)Man(a1-3)[GlcNAc(b1-4)][GlcNAc(b1-2)Man(a1-6)]Man(b1-4)GlcNAc(b1-4)[Fuc(a1-6)]GlcNAc
# How it was run: as §1
# [36] = biological target: GlcNAc(b1-2)[GlcNAc(b1-4)]Man(a1-3)[GlcNAc(b1-2)Man(a1-6)]Man(b1-4)GlcNAc(b1-4)GlcNAc
# How it was run: as §1
# [37] = biological target: GlcNAc(b1-2)[GlcNAc(b1-4)]Man(a1-3)[GlcNAc(b1-4)][GlcNAc(b1-2)Man(a1-6)]Man(b1-4)GlcNAc(b1-4)GlcNAc
# How it was run: as §1
# [38] = biological target: GlcNAc(b1-2)[GlcNAc(b1-4)]Man(a1-3)[GlcNAc(b1-4)][GlcNAc(b1-2)[GlcNAc(b1-6)]Man(a1-6)]Man(b1-4)GlcNAc(b1-4)GlcNAc
# How it was run: as §1
# [39] = biological target: GlcNAc(b1-2)[GlcNAc(b1-4)]Man(a1-3)[GlcNAc(b1-4)][GlcNAc(b1-2)[GlcNAc(b1-6)]Man(a1-6)]Man(b1-4)GlcNAc(b1-4)[Fuc(a1-6)]GlcNAc
# How it was run: as §1
# [40] = biological target: GlcNAc(b1-2)[GlcNAc(b1-6)]Man(a1-6)[GlcNAc(b1-2)Man(a1-3)]Man(b1-4)GlcNAc(b1-4)GlcNAc
# How it was run: as §1
# [41] = biological target: GlcNAc(b1-2)[GlcNAc(b1-6)]Man(a1-6)[GlcNAc(b1-2)Man(a1-3)]Man(b1-4)GlcNAc(b1-4)[Fuc(a1-6)]GlcNAc
# How it was run: as §1
# [42] = biological target: GlcNAc(b1-2)[GlcNAc(b1-6)]Man(a1-6)[GlcNAc(b1-4)][GlcNAc(b1-2)Man(a1-3)]Man(b1-4)GlcNAc(b1-4)GlcNAc
# How it was run: as §1
# [43] = biological target: GlcNAc(b1-3)Fuc
# How it was run: as §1
# [44] = biological target: GlcNAc(b1-3)Gal
# How it was run: as §1
# [45] = biological target: GlcNAc(b1-3)Gal(b1-3)GalNAc
# How it was run: as §1
binder,measurement,setting,value
B1,glycan array binding signal (z-score),[1],0.453
same,glycan array binding signal (z-score),[2],-0.274
same,glycan array binding signal (z-score),[3],-1.4
same,glycan array binding signal (z-score),[4],-0.333
same,glycan array binding signal (z-score),[5],0.791
same,glycan array binding signal (z-score),[6],1.34
same,glycan array binding signal (z-score),[7],0.248
same,glycan array binding signal (z-score),[8],-0.131
same,glycan array binding signal (z-score),[9],-0.331
same,glycan array binding signal (z-score),[10],0.507
same,glycan array binding signal (z-score),[11],-0.155
same,glycan array binding signal (z-score),[12],-1.2
same,glycan array binding signal (z-score),[13],-0.88
same,glycan array binding signal (z-score),[14],-0.067
same,glycan array binding signal (z-score),[15],1.36
same,glycan array binding signal (z-score),[16],1.14
same,glycan array binding signal (z-score),[17],1.18
same,glycan array binding signal (z-score),[18],0.654
same,glycan array binding signal (z-score),[19],-0.409
same,glycan array binding signal (z-score),[20],1.93
same,glycan array binding signal (z-score),[21],0.823
same,glycan array binding signal (z-score),[22],0.476
same,glycan array binding signal (z-score),[23],-1.05
same,glycan array binding signal (z-score),[24],-0.936
same,glycan array binding signal (z-score),[25],-0.453
same,glycan array binding signal (z-score),[26],1.3
same,glycan array binding signal (z-score),[27],-1.07
same,glycan array binding signal (z-score),[28],-0.394
same,glycan array binding signal (z-score),[29],1.2
same,glycan array binding signal (z-score),[30],-0.598
same,glycan array binding signal (z-score),[31],-0.039
same,glycan array binding signal (z-score),[32],-0.426
same,glycan array binding signal (z-score),[33],0.635
same,glycan array binding signal (z-score),[34],-0.61
same,glycan array binding signal (z-score),[35],0.09
same,glycan array binding signal (z-score),[36],-0.263
same,glycan array binding signal (z-score),[37],-0.99
same,glycan array binding signal (z-score),[38],-1.24
same,glycan array binding signal (z-score),[39],-0.355
same,glycan array binding signal (z-score),[40],0.506
same,glycan array binding signal (z-score),[41],0.065
same,glycan array binding signal (z-score),[42],-1
same,glycan array binding signal (z-score),[43],-0.215
same,glycan array binding signal (z-score),[44],-0.666
same,glycan array binding signal (z-score),[45],0.241

# Three entries drawn at random from those above:
binder,measurement,setting,value
B1,glycan array binding signal (z-score),[24],-0.936
same,glycan array binding signal (z-score),[16],1.14
same,glycan array binding signal (z-score),[39],-0.355
